The values that follow come from paper PMC9273934 (2022).

Protein sequences, listed by entry. Tags and fused reporters are not part of them. Residues count along the entry.
Flag-E1 from H77 (GT1a) (P27958, residues 192-383): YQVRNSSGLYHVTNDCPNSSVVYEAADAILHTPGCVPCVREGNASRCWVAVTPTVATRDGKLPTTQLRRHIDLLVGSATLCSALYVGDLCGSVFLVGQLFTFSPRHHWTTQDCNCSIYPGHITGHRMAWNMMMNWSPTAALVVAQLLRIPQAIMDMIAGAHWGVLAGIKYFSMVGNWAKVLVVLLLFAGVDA
Fc-E2 from H77 (GT1a) (hepatitis C virus, strain H77 (GT1a)) (P27958, residues 384-746): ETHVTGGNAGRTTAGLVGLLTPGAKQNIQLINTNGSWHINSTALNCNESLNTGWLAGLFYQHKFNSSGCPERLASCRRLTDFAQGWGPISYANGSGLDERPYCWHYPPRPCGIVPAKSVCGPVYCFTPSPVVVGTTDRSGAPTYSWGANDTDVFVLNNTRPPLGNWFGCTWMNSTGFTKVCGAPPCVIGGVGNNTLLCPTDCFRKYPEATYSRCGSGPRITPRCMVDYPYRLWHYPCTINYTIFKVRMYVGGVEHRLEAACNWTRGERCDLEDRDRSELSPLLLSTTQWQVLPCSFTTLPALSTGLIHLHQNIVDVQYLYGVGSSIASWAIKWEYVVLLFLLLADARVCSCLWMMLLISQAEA
Flag-E1 from Con1 (GT1b) (Q9WMX2, residues 192-383): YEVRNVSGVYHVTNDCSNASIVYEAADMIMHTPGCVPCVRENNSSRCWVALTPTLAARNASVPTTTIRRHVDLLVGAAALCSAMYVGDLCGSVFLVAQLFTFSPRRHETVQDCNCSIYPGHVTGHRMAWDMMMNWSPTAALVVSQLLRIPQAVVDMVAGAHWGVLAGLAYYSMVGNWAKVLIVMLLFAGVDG
Fc-E2 from Con1 (GT1b) (hepatitis C virus, strain Con1 (GT1b)) (Q9WMX2, residues 384-746): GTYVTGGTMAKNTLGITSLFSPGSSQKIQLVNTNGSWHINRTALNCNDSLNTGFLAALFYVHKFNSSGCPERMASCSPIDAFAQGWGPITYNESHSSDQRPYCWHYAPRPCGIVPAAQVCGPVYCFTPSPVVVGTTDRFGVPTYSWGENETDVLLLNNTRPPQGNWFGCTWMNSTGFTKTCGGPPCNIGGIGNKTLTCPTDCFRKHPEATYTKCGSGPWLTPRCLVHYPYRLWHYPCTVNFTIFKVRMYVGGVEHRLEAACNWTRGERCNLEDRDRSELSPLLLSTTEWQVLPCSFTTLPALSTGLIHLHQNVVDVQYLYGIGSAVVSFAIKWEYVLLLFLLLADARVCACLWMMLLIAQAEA

Results are given in words; binding and its absence hold for the method and conditions named. For some of these results: In cells and extracts the contact can be indirect. Some results given as binding are weak or reduced against the parent protein; the word gives no strength.

The target of experiment [1] is Fc-E2 from H77 (GT1a) (hepatitis C virus, strain H77 (GT1a)) (UniProt P27958). The experiment in a line: pull-down + native gel or EMSA; one-step protein A Sepharose purification of Fc-E2 from 0.5% Triton X-100 membrane extracts of FreeStyle 293-F cells; Flag-E1 found by Coomassie and Western blot under reducing and non-reducing conditions and by native Western blotting.

For experiment [2], the target named is T1, scavenger receptor class B type I on CHO cells (human) (UniProt Q8WTV0).
T1 sequence: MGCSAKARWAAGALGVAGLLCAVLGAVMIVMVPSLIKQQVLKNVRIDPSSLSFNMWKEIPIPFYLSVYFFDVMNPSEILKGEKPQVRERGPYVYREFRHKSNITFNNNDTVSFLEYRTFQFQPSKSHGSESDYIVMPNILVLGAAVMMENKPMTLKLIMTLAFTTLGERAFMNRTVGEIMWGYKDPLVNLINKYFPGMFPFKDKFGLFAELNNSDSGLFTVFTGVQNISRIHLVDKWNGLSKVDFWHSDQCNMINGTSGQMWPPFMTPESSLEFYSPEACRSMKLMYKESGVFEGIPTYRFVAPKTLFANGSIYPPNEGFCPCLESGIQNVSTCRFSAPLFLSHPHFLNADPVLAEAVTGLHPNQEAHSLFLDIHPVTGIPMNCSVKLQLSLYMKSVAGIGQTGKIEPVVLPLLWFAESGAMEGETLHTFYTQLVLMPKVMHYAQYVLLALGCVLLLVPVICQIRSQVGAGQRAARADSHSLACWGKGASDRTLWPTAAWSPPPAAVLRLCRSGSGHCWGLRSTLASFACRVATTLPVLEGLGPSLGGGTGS
Nature of the experiment: flow cytometry on cells; 10 ug Fc-E1E2 with CHO cells stably expressing CD81 or SR-BI (or parental CHO), 2 h at room temperature; PE anti-human IgG Fc; only the binder purified.

The target of experiment [3] is T2, human CD81 on CHO cells (human) (UniProt P60033).
T2 sequence: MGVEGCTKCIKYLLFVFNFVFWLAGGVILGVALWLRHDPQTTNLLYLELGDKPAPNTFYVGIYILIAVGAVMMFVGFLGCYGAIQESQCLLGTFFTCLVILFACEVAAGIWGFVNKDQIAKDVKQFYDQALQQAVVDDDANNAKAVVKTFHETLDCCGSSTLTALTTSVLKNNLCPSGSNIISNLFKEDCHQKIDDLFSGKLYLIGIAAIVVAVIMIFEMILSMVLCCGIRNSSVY
The experiment is described as above.

Experiment [4] has as its target Fc-E2 from Con1 (GT1b) (hepatitis C virus, strain Con1 (GT1b)) (UniProt Q9WMX2). The experiment in a line: pull-down + native gel or EMSA; one-step protein A Sepharose purification of Fc-E2 from 0.5% Triton X-100 membrane extracts of FreeStyle 293-F cells; Flag-E1 found by Coomassie and Western blot under reducing and non-reducing conditions and by native Western blotting. Background: In EMSA bound probe runs differently from free probe, usually more slowly.

“Flag-E1 from H77 (GT1a) (from UniProt P27958 192-383)”: in experiment [1], the binding result was “binds”.
On to “Fc-E1E2 from Con1 (GT1b), recombinant full-length E1E2 heterodimer (from UniProt Q9WMX2 192-383; Q9WMX2 384-746) (complex)”, for which the binding result in experiment [2] and in experiment [3] was “binds” throughout.
Take “Flag-E1 from Con1 (GT1b) (from UniProt Q9WMX2 192-383)”: the binding entry in experiment [4] is “binds”.
